Reference: PubChem BioAssay AID624291 (National Center for Advancing Translational Sciences (NCATS), 2012)
Screen size: about 350,000 compounds; about 220 (0.063%) were called active. The inconclusive results got no clear call from the source; some entries with a clear call stand among them for comparison. The call rests on the fitted dose curve; in most records, active means well fitted activation curve with a large enough effect; inconclusive means small, poorly fitted or top-dose-only effect; inactive means no such curve, though single readings can be large or run the other way. Potencies beside an inconclusive call are fits to weak or partial responses and may not hold up.

Experiment: qHTS for Activators of Integrin-Mediated Alleviation for Muscular Dystrophy; further: nearly all actives have a fitted effect of over 60% in size;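 on activation: 100% = response of the positive control SU9516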
Settings: alpha7betagal myoblasts, beta-gal FDG fluorescence, 48 h; activation: at 38.3 µM (top of the series)
How it was run: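 Alpha7betagal+/- myoblasts (passage 13) were plated 16-24 hr, then exposed to compounds (1:260 dilution of DMSO stock) for 48 hours at 37C. After MPER lysis, β-galactosidase reporter activity was read as FDG fluorescence (ex 480/em 540) after 30 minutes.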
Potency means the concentration at half of the fitted maximal effect.

| SMILES | Potency | activation |
| --- | --- | --- |
| COC(=O)c1ccc(COC(=O)c2nn(C)c(=O)c3ccccc23)cc1 | inconclusive: 5.01 µM [activator, single point] |  |
| O=[N+]([O-])c1ccc(N2CCCC2)c2ncccc12 |  | inactive: 41.9% |
| CC12CN3CC(C)(CN(C1)C31CCSCC1)C2=O | inconclusive: 15.8 µM [activator, single point] |  |
| OCC#CC[N+]1(CC#Cc2ccccc2)CCOCC1 | inconclusive: 2.82 µM [activator, single point] |  |
| Cc1cc(C=C2C(=O)N(C)C(=O)N(C)C2=O)c(C)n1-c1ccccc1 | inconclusive: 5.01 µM [activator, single point] |  |
| FC(F)(F)c1ccccc1CNCCc1c[nH]c2ccccc12 |  | inactive: 0.203% |
| CC/C(=C\C=C\[C@@H]1C=C[C@@H]2CCC[C@H]2[C@@H]1C(=O)c1ccc[nH]1)[C@@H]1O[C@@H]([C@@H](C)C(=O)O)CC[C@@H]1C |  | inactive: -72% |
| O=C(N/N=C/c1c(O)n(C2CCCCC2)c(=S)[nH]c1=O)c1ccccc1 |  | inactive: 3.58% |
| Cc1nn(CC(C)C)c(Cl)c1C(=O)NC1CCCCC1 |  | inactive: 2.11% |
| Cc1c(N=Nc2c(O)[nH]c(=O)[nH]c2=O)c(=O)n(-c2ccccc2)n1C | inconclusive: 8.91 µM [activator, single point] |  |
| CC1(C)CSC(Nc2ccc(F)c(Cl)c2)=N1 |  | inactive: -13.9% |
| CCCNC(=O)NC(=O)COc1ccc(-c2ccc(C#N)cc2)cc1 | inconclusive: 3.16 µM [activator, single point] |  |
| O=C(c1ccccc1)N1CCN(c2ccccc2)CC1 | inconclusive: 3.16 µM [activator, single point] |  |
| COc1ccc(/C=C/C(=O)c2c(O)n(CCC3=CCCCC3)c(=O)[nH]c2=O)cc1OC | inconclusive: 28.2 µM [activator, single point] |  |
| Cc1cc(C)nc(N2Cc3ccccc3C2=N)n1 | inconclusive: 5.01 µM [activator, single point] |  |
| COc1cccc(N=Cc2c(O)n(Cc3ccco3)c(=O)[nH]c2=O)c1 | inconclusive: 1.26 µM [activator, partial curve, poor fit] |  |
| O=C(NC1CCCCC1)N1C[C@H]2C[C@@H](C1)c1cccc(=O)n1C2 | inconclusive: 1.58 µM [activator, partial curve, poor fit] |  |
| CC(=O)OC1CC[C@]2(C#N)[C@H]3CC[C@]4(C)[C@H](C5C=CC(=O)O5)CCC4(O)C3CCC2(O)C1 (some centres undefined) |  | inactive: 3.16% |
| C[C@H](CO)N1C[C@H](C)[C@@H](CN(C)C(=O)Oc2ccc3ccccc3c2)OCc2cn(nn2)CCCC1=O |  | inactive: 7.71% |

Three compounds out of the list, arranged by SMILES length, descending.

| SMILES | Potency | activation |
| --- | --- | --- |
| Cc1c(N=Nc2c(O)[nH]c(=O)[nH]c2=O)c(=O)n(-c2ccccc2)n1C | inconclusive: 8.91 µM [activator, single point] |  |
| O=C(N/N=C/c1c(O)n(C2CCCCC2)c(=S)[nH]c1=O)c1ccccc1 |  | inactive: 3.58% |
| CC12CN3CC(C)(CN(C1)C31CCSCC1)C2=O | inconclusive: 15.8 µM [activator, single point] |  |
